From patent US5603943A, “Nasally administrable compositions” (Dott Research Laboratory, priority 1994, dated 1997) come the findings set out here.

What all share (type): in vivo, healthy male adults (human)
The nature of data set [1]: Salmon calcitonin blood concentration, nasal powder with magnesium stearate (Test Example 4). The conditions noted are these: nasal 200 MRC (IU)/25 mg, individual cases No. 8-10 in order. As for the experimental part:
A nasally administrable composition in powdery form was prepared by formulating salmon calcitonin as a physiologically active peptide at the rate of 200 MRC (IU) per 25 mg with magnesium stearate as a carrier having a mean particle size ranging from 40 to 45 μm.
The resulting composition was nasally administered once at a dose of 25 mg to three healthy male adults and the blood (2.5 ml) was collected from each of the tested adults prior to administration and then at 5, 10, 15, 20, 30, 45, 60, 90, 120 and 180 minutes after administration. The concentration of the salmon calcitonin in each -of the collected blood samples was assayed with a standard RIA assay kit.

Data set [2] in a line: Salmon calcitonin blood concentration, nasal powder with calcium carbonate (Test Example 5). The following applies: nasal 200 MRC (IU)/25 mg, individual cases No. 11-13 in order. How it is done: A nasally administrable composition in powdery form was prepared by formulating salmon calcitonin as a physiologically active peptide at the rate of 200 MRC (IU) per 25 mg with calcium carbonate as a carrier having a mean particle size ranging from 40 to 45 μm.
(§1) The resulting composition was nasally administered once at a dose of 25 mg to three healthy male adults and the blood (2.5 ml) was collected from each of the tested adults prior to administration and then at 5, 10, 15, 20, 30, 45, 60, 90, 120 and 180 minutes after administration. The concentration of the salmon calcitonin in each of the collected blood samples was assayed with a standard RIA assay kit.

The nature of data set [3]: Salmon calcitonin blood concentration, nasal powder with aluminum hydroxide (Test Example 6). The conditions noted are these: nasal 200 MRC (IU)/25 mg, individual cases No. 14-16 in order. As for the experimental part: A nasally administrable composition in powdery form was prepared by formulating salmon calcitonin as a physiologically active peptide at the rate of 200 MRC (IU) per 25 mg with aluminum hydroxide as a carrier having a mean particle size ranging from 40 to 45 μm.
as §1

Data set [4] is described as follows: Glucagon blood concentration, nasal powder with hydroxyapatite (Test Example 8). The conditions noted are these: nasal 1.2 glucagon unit/30 mg, individual cases No. 17-20 in order. As for the experimental part: A nasally administrable composition in powdery form was prepared by formulating glucagon (from hog spleen) as a physiologically active peptide at the rate of 40 mg per composition (1,000 mg) with hydroxyapatite as a carrier having a mean particle size ranging from 40 to 45 μm.
The resulting composition was nasally administered once at a dose of 1.2 glucagon unit/30 mg to three healthy male adults and the blood (2.5 ml) was collected from each of the tested adults prior to administration and then at 5, 10, 15, 20, 30, 45, 60, 90, 120, 150 and 180 minutes after administration. The concentration of the glucagon in each of the collected blood samples was assayed with a standard RIA assay kit.

Where “and” joins values, the source holds several entries; their conditions need not be identical. Equal entries are not always repeated. Further values from the same series stand in other lists.

For salmon calcitonin, the “Concentration of salmon calcitonin in the blood” value in data set [1] (0 min (predose)) was ~ 7 pg/ml; in data set [1] (5 min) it was 60.07 pg/mL and 25.23 pg/mL and 29.77 pg/mL; in data set [1] (10 min) it was 50.35 pg/mL and 16.18 pg/mL and 33.27 pg/mL; in data set [1] (15 min), 37.65 pg/mL and 24.43 pg/mL and 41.01 pg/mL; in data set [1] (20 min), 34.90 pg/mL and 15.84 pg/mL and 30.80 pg/mL; in data set [1] (30 min), 22.22 pg/ml and ~ 7 pg/ml and 16.19 pg/ml. In addition, the “Concentration of salmon calcitonin in the blood” value in data set [1] (45 min) was 16.75 pg/ml and ~ 7 pg/ml and 14.79 pg/ml; in data set [1] (60 min), 12.60 pg/ml and ~ 7 pg/ml and 14.15 pg/ml; in data set [1] (90 min), ~ 7 pg/ml and 9.42 pg/ml; in data set [1] (120 min), ~ 7 pg/ml; in data set [1] (180 min), ~ 7 pg/ml; in data set [2] (0 min (predose)) it was ~ 7 pg/ml. The “Concentration of salmon calcitonin in the blood” value was 59.30 pg/mL and 40.60 pg/mL and 73.17 pg/mL in data set [2] (5 min); 71.14 pg/mL and 121.74 pg/mL and 70.15 pg/mL in data set [2] (10 min); 83.39 pg/mL and 131.95 pg/mL and 66.30 pg/mL in data set [2] (15 min); 76.26 pg/mL and 113.20 pg/mL and 65.64 pg/mL in data set [2] (20 min); 44.54 pg/mL and 46.19 pg/mL and 46.81 pg/mL in data set [2] (30 min); 25.50 pg/mL and 38.65 pg/mL and 27.43 pg/mL in data set [2] (45 min). For the same substance, the “Concentration of salmon calcitonin in the blood” value is 13.99 pg/mL and 13.39 pg/mL and 16.83 pg/mL in data set [2] (60 min); 13.33 pg/mL and 16.00 pg/mL and 14.83 pg/mL in data set [2] (90 min); 7.88 pg/mL and 12.02 pg/mL and 13.44 pg/mL in data set [2] (120 min); 7.54 pg/mL and 8.09 pg/mL and 8.98 pg/mL in data set [2] (180 min); ~ 7 pg/ml (2×) and 8.35 pg/ml in data set [3] (90 min); ~ 7 pg/ml in data set [3] (120 min). In data set [3] (180 min), the “Concentration of salmon calcitonin in the blood” value was ~ 7 pg/ml (2×) and 8.26 pg/ml.

For glucagon, the “Concentration of glucagon in the blood” value was 0.073 ng/mL and 0.063 ng/mL and 0.054 ng/mL and 0.097 ng/mL in data set [4] (5 min); 0.115 ng/mL and 0.074 ng/mL and 0.079 ng/mL and 0.117 ng/mL in data set [4] (10 min); 0.117 ng/mL and 0.085 ng/mL and 0.17 ng/mL and 0.124 ng/mL in data set [4] (15 min); 0.097 ng/mL and 0.1 ng/mL and 0.124 ng/mL and 0.121 ng/mL in data set [4] (20 min); 0.082 ng/mL and 0.095 ng/mL and 0.086 ng/mL and 0.117 ng/mL in data set [4] (30 min); 0.076 ng/mL and 0.098 ng/mL and 0.054 ng/mL and 0.112 ng/mL in data set [4] (45 min). The “Concentration of glucagon in the blood” value in data set [4] (60 min) is 0.063 ng/mL and 0.077 ng/mL and 0.046 ng/mL and 0.106 ng/mL; in data set [4] (90 min), 0.055 ng/mL and 0.07 ng/mL and 0.029 ng/mL and 0.087 ng/mL; in data set [4] (120 min), 0.054 ng/mL and 0.073 ng/mL and 0.029 ng/mL and 0.077 ng/mL; in data set [4] (150 min) it was 0.058 ng/mL and 0.083 ng/mL and 0.026 ng/mL and 0.071 ng/mL; in data set [4] (180 min) it was 0.042 ng/mL and 0.068 ng/mL and 0.027 ng/mL and 0.078 ng/mL.
